PubChem BioAssay AID1259259, Sanger Institute, 2017
Test: 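Kinase silencing that lowers colorectal cancer cell viability alone or with drugs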 (primary screen). Cells: SW1463 human colorectal cancer cells. Reagent: siRNA pool against human genes. Challenge: DMSO vehicle, or one anchor drug: BYL719 at 1 µM, cetuximab at 5 µg/ml, or trametinib at 10 nM. Measurement: 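Viability relative to control pool 2 (non-targeting) averaged over replicates, robust z-score for knock-down with no drug, and for each anchor drug the mean synergy score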. Reading the numbers: robust z-score, knock-down alone: higher = more viable cells after knock-down; viability, knock-down alone: higher = more viable cells; synergy score with BYL719 and synergy score with cetuximab and synergy score with trametinib: higher = stronger synergy (synthetic lethal) with drug. Rule for the call: 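a robust z-score under -3 for knock-down with no drug marks the gene as essential, meaning viability loss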. Meaning of the calls: active = essential: viability loss from knock-down alone; inactive = no change from knock-down alone.
This is an unselected part of 794 reagents tested. 9 of all reagents (1.1%) were called active. 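Calls rest on knock-down alone, not drug synergy; viability values seem capped at 1.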 A number with no mark means an inactive call. No sequences are given here. Not given: the amount of reagent, the time to read-out.

no.	gene symbol	robust z-score, knock-down alone	viability, knock-down alone (fraction of control)	synergy score with BYL719	synergy score with cetuximab	synergy score with trametinib
1	ULK4	-1.12	0.856	0.007	0.108	-0.00256
2	AAK1	-0.469	0.898	0.0567	0.0388	0.00988
3	PHKA2	-0.241	0.912	-0.0878	-0.00987	-0.118
4	EFNA4	1.13	1	0	0.0727	0.0134
5	PRKAR1A	1.06	0.996	-0.00416	0.00223	0.159
6	FGFR1	1.13	1	0	-0.0272	0.0944
7	UCK2	1.13	1	0.071	0.0203	0.0298
8	CHD9	0.0631	0.932	0.0746	0.0465	0.00983
9	GATA3	0.961	0.989	0.102	0.122	0.138
10	CDK5R1	-0.000521	0.928	0.0702	0.0785	0.0293
11	PTK2	-1.33	0.842	0.0207	0.146	0.0179
12	CAD	1.13	1	0	-0.0272	-0.0326
13	FLT3	-0.308	0.908	-0.0351	-0.0527	-0.0446
14	DLG1	0.393	0.953	0.0695	-0.0128	-0.0272
15	AKT2	-0.0571	0.924	0.0645	-0.0398	0.252
16	PDK2	0.529	0.962	0.0941	0.063	-0.0385
17	DCLK1	0.773	0.977	0.00929	0.269	0.031
18	PRPS1L1	0.632	0.968	-0.0318	0.0436	0.131
19	RPS6KA1	-0.352	0.905	-0.0256	0.00668	-0.057
20	PKN3	-0.104	0.921	-0.012	0.0305	-0.094
21	NUAK1	-2.2	0.786	-0.214	-0.0641	-0.137
22	SRMS	0.969	0.99	0.211	0.0726	0.171
23	FOXP1	-1.44	0.835	0.0604	0.0343	0.128
24	MAP3K11	-1.19	0.851	-0.117	-0.0318	-0.16
25	DCLK3	-0.854	0.873	0.0973	-0.0395	0.18
26	ADCK2	-2.29	0.781	0.0249	0.0533	-0.121
27	TAB1	1.13	1	0	0.0851	-0.0326
28	MAP3K19	-0.0777	0.923	-0.0111	0.17	0.159
29	IRAK2	1.13	1	0	0.189	0.0291
30	ALK	-1.16	0.853	0.0648	0.0929	0.144
31	EEF2K	-1.8	0.812	-0.000769	0.103	0.0653
32	CRKL	1.13	1	0.0171	0.105	0.0118
33	PLK4	-0.815	0.875	0.0313	0.0494	0.124
34	GUCY2C	1.13	1	0.133	0.251	0.125

6 entries from above in another layout:
RPS6KA1 → robust z-score, knock-down alone: -0.352; viability, knock-down alone (fraction of control): 0.905; synergy score with BYL719: -0.0256; synergy score with cetuximab: 0.00668; synergy score with trametinib: -0.057
PKN3 → robust z-score, knock-down alone: -0.104; viability, knock-down alone (fraction of control): 0.921; synergy score with BYL719: -0.012; synergy score with cetuximab: 0.0305; synergy score with trametinib: -0.094
NUAK1 → robust z-score, knock-down alone: -2.2; viability, knock-down alone (fraction of control): 0.786; synergy score with BYL719: -0.214; synergy score with cetuximab: -0.0641; synergy score with trametinib: -0.137
SRMS → robust z-score, knock-down alone: 0.969; viability, knock-down alone (fraction of control): 0.99; synergy score with BYL719: 0.211; synergy score with cetuximab: 0.0726; synergy score with trametinib: 0.171
FOXP1 → robust z-score, knock-down alone: -1.44; viability, knock-down alone (fraction of control): 0.835; synergy score with BYL719: 0.0604; synergy score with cetuximab: 0.0343; synergy score with trametinib: 0.128
MAP3K11 → robust z-score, knock-down alone: -1.19; viability, knock-down alone (fraction of control): 0.851; synergy score with BYL719: -0.117; synergy score with cetuximab: -0.0318; synergy score with trametinib: -0.16
